## Drug screen on melanoma cell lines: apoptosis marker

Source: doi:10.1371/journal.pone.0140310, primary screening data, rounded.

Drug key:
OSU-03012 (5 µM): NCC(=O)Nc1ccc(-n2nc(C(F)(F)F)cc2-c2ccc3c(ccc4ccccc43)c2)cc1
pioglitazone (10 µM): CCc1ccc(CCOc2ccc(CC3SC(=O)NC3=O)cc2)nc1 (stereo unspecified)
palbociclib (0.2 µM): CC(=O)c1c(C)c2cnc(Nc3ccc(N4CCNCC4)cn3)nc2n(C2CCCC2)c1=O
U73122 (2 µM): COc1ccc2c(c1)CCC1C2CCC2(C)C(NCCCCCCN3C(=O)C=CC3=O)CCC12 (stereo unspecified)
everolimus (0.1 µM): CO[C@H]1C[C@@H]2CC[C@@H](C)[C@@](O)(O2)C(=O)C(=O)N2CCCC[C@H]2C(=O)O[C@H]([C@H](C)C[C@@H]2CC[C@@H](OCCO)[C@H](OC)C2)CC(=O)[C@H](C)/C=C(\C)[C@@H](O)[C@@H](OC)C(=O)[C@H](C)C[C@H](C)/C=C/C=C/C=C/1C
KU-0063794 (0.1 µM): COc1ccc(-c2ccc3c(N4CCOCC4)nc(N4C[C@@H](C)O[C@@H](C)C4)nc3n2)cc1CO
erlotinib (4 µM): C#Cc1cccc(Nc2ncnc3cc(OCCOC)c(OCCOC)cc23)c1

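The test systems are human melanoma cell lines, treated with a pair of drugs for 72 h and then stained and imaged. Values are the share of nuclei positive for cleaved PARP as a percentage of the same share in the DMSO control: 100 is the control level, higher means more apoptosis. Every drug was used at one fixed concentration, the higher of two screened. The file gives one value for each pair and line, without errors, so small differences may be noise. Basal and induced levels differ widely between cell lines.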
This is part of the screen, not chosen by result.

erlotinib + OSU-03012 gave SK-MEL-30: 381; WM3619: 141; MEL-HO: 146; RVH-421: 427; WM1716: 118; SK-MEL-5: 200. OSU-03012 + everolimus gave SK-MEL-30: 334; WM3619: 662; MEL-HO: 80.6; RVH-421: 87.7; WM1716: 53.1; SK-MEL-5: 484. With palbociclib + pioglitazone the screen read SK-MEL-30: 28.0; WM3619: 113; MEL-HO: 272; RVH-421: 63.8; WM1716: 70.5; SK-MEL-5: 188. Results for everolimus + KU-0063794 are SK-MEL-30: 227; WM3619: 211; MEL-HO: 72.2; RVH-421: 89.8; WM1716: 136; SK-MEL-5: 256. U73122 + palbociclib gave SK-MEL-30: 166; WM3619: 125; MEL-HO: 82.3; RVH-421: 101; WM1716: 77.0; SK-MEL-5: 47.6.

With pioglitazone + erlotinib the screen read SK-MEL-30: 163; WM3619: 120; MEL-HO: 92.7; RVH-421: 119; WM1716: 199; SK-MEL-5: 246. For U73122 + everolimus the values were SK-MEL-30: 193; WM3619: 238; MEL-HO: 238; RVH-421: 468; WM1716: 82.7; SK-MEL-5: 104. For pioglitazone + OSU-03012 the values were SK-MEL-30: 1640; WM3619: 170; MEL-HO: 251; RVH-421: 128; WM1716: 4320; SK-MEL-5: 451. With palbociclib + erlotinib the screen read SK-MEL-30: 94.4; WM3619: 166; MEL-HO: 63.3; RVH-421: 117; WM1716: 112; SK-MEL-5: 111. everolimus + palbociclib gave SK-MEL-30: 95.9; WM3619: 100; MEL-HO: 57.1; RVH-421: 111; WM1716: 175; SK-MEL-5: 129.

For U73122 + KU-0063794 the values were SK-MEL-30: 150; WM3619: 176; MEL-HO: 99.1; RVH-421: 138; WM1716: 103; SK-MEL-5: 209. With KU-0063794 + OSU-03012 the screen read SK-MEL-30: 356; WM3619: 138; MEL-HO: 143; RVH-421: 102; WM1716: 14.6; SK-MEL-5: 300. pioglitazone + KU-0063794 gave SK-MEL-30: 76.6; WM3619: 133; MEL-HO: 108; RVH-421: 115; WM1716: 44.5; SK-MEL-5: 43.7. pioglitazone + U73122 gave SK-MEL-30: 131; WM3619: 673; MEL-HO: 225; RVH-421: 104; WM1716: 116; SK-MEL-5: 137. With U73122 + erlotinib the screen read SK-MEL-30: 129; WM3619: 153; MEL-HO: 64.8; RVH-421: 138; WM1716: 53.2; SK-MEL-5: 305.

pioglitazone + everolimus gave SK-MEL-30: 105; WM3619: 145; MEL-HO: 194; RVH-421: 150; WM1716: 140; SK-MEL-5: 122. With palbociclib + OSU-03012 the screen read SK-MEL-30: 285; WM3619: 181; MEL-HO: 91.1; RVH-421: 68.2; WM1716: 59.7; SK-MEL-5: 84.5. For KU-0063794 + palbociclib the values were SK-MEL-30: 139; WM3619: 150; MEL-HO: 326; RVH-421: 99.1; WM1716: 263; SK-MEL-5: 933. For KU-0063794 + erlotinib the values were SK-MEL-30: 62.5; WM3619: 95.6; MEL-HO: 60.2; RVH-421: 139; WM1716: 112; SK-MEL-5: 322. Results for everolimus + erlotinib are SK-MEL-30: 213; WM3619: 132; MEL-HO: 177; RVH-421: 127; WM1716: 48.1; SK-MEL-5: 572.

Repeated from the top, 2 entries:

| Pair | SK-MEL-30 | WM3619 | MEL-HO | RVH-421 | WM1716 | SK-MEL-5 |
|---|---|---|---|---|---|---|
| erlotinib + OSU-03012 | 381 | 141 | 146 | 427 | 118 | 200 |
| OSU-03012 + everolimus | 334 | 662 | 80.6 | 87.7 | 53.1 | 484 |